No constants are given. Whether binding was seen depends on the method and setting. Some binding calls cover weakened binding; strength is not graded here.
What was measured:
[1] = target: rPduLΔEP (PduL from the grm3 locus of Rhodopseudomonas palustris BisB18, N-terminal putative encapsulation peptide removed) (Rhodopseudomonas palustris BisB18) (UniProt Q21A54); test: crystal structure; rPduLΔEP crystals from 39%-35% MPD, sitting drop, 22°C; CoA-bound (native) and phosphate-soaked forms; two molecules in the asymmetric unit; both purified
[2] = target: sPduLΔEP (PduL from the pdu locus of Salmonella enterica Typhimurium LT2, putative encapsulation peptide residues 1-27 removed) (Salmonella enterica Typhimurium LT2) (UniProt Q9XDN5); test: SEC; post-nickel affinity protein on HiLoad 26/60 Superdex 200 preparative column, pooled fractions (1-20 mg/mL) on Superdex 200 10/300 GL analytical column; 20 mM Tris pH 7.4, 50 mM NaCl; both purified
[3] = target: sPduL, full length (PduL from the pdu locus of Salmonella enterica Typhimurium LT2) (Salmonella enterica Typhimurium LT2) (UniProt Q9XDN5); test: as above

B1: rPduLΔEP (PduL from the grm3 locus of Rhodopseudomonas palustris BisB18, N-terminal putative encapsulation peptide removed) (enzyme, UniProt Q21A54 34-226, looked up)
chain: GVDPFQVAVGVSNRHIHLSRTDMDTLFGPGAELQRKKAMKQPGQFAAEETVTLKGPKGSLSKVRVLGPLRRETQVEVSVADGFALGITPPLRQSGQLDDTPGLTIIGPQGSVTKDHGVIVAQRHIHMHPSTAAKLGLRNGDEVDVEAGGERGGVMHRVLIRVAEASADEMHIDVEEANALCLKNDDVVRICKK
notes: PduL phosphotransacylase, grm3 locus, Rhodopseudomonas palustris BisB18; N-terminal putative EP (33 amino acids) removed; the crystallized construct begins with M-G-V; The construct begins with M-G-V; Gene codon optimized and synthesized with the 6xHis tag; no tag cleavage step is described; Crystals hold CoA (or phosphate) and two zinc ions per chain; also called truncated rPduL; Pdul-His; …
binding [1]: binds

B2: sPduLΔEP (PduL from the pdu locus of Salmonella enterica Typhimurium LT2, putative encapsulation peptide residues 1-27 removed) (enzyme, UniProt Q9XDN5 28-210)
chain: NRHIHLSAQDYERLFPGHPISEKKALLQPGQYAAEQTVTLVGPKGQLKNVRLLGPLRSVSQVEISRTDARTLGIAAPLRMSGNLKGTPGIRLVSPFAELELPSGVIVAQRHIHMSPLDALILRVSHGDMVSVAIEGDDRGLIFNNVAIRVSPDMRLEMHIDTDEANAAGADNPHAFARLVGPR
binding [2]: no binding

B3: sPduL, full length (PduL from the pdu locus of Salmonella enterica Typhimurium LT2) (enzyme, UniProt Q9XDN5 1-210)
chain: MDKELLQSTVRKVLDEMRQRPIPLGVSNRHIHLSAQDYERLFPGHPISEKKALLQPGQYAAEQTVTLVGPKGQLKNVRLLGPLRSVSQVEISRTDARTLGIAAPLRMSGNLKGTPGIRLVSPFAELELPSGVIVAQRHIHMSPLDALILRVSHGDMVSVAIEGDDRGLIFNNVAIRVSPDMRLEMHIDTDEANAAGADNPHAFARLVGPR
binding [3]: no binding

Source: article PMC4784909, “The Structural Basis of Coenzyme A Recycling in a Bacterial Organelle” (PLoS Biology, 2016)
